Measured values published in US20190071517A1 (KANAGAWA PREFECTURAL HOSPITAL ORGANIZATION, published 2019).
Results are given in words; binding and its absence hold for the method and conditions named. Some binding calls cover weakened binding; strength is not graded here.

How the values were obtained:
[1] = biological target: fusion protein 7.62 (SEQ ID NO: 45 bonded to SLURPgpi) (human); test: Western blot (FIG. 14B legend)
[2] = biological target: fusion protein 7.6 (HEG1 amino acid No. 783 to 991 bonded to SLURPgpi) (human); test: Western blot (FIG. 14B legend)
[3] = biological target: fusion protein 7.623 (SEQ ID NO: 48 bonded to SLURPgpi) (human); test: Western blot (FIG. 14C legend)
[4] = biological target: fusion protein 7.623 (SEQ ID NO: 48 bonded to SLURPgpi) (human); test: Western blot of SLURPgpi fusion proteins
[5] = biological target: fusion protein 7.62 (SEQ ID NO: 45 bonded to SLURPgpi) (human); test: Western blot of SLURPgpi fusion proteins
[6] = biological target: fusion protein 7.6 (HEG1 amino acid No. 783 to 991 bonded to SLURPgpi) (human); test: Western blot of SLURPgpi fusion proteins

Measured: binding

B1: SKM9-2 antibody (antibody, mouse IgG1, kappa, V domains shown)
VH: QVQLQQPGAELVRPGASVKLSCKASGFSFTTYWITWVKQRPGQGLEWIGMIHPSDSETRLSQTFKDKATLTVDKSSNTAYMQFSSPTSEDSAVYYCVRDFDVWGAGTTVTVSS
VL: DVLMTQTPLSLPVSLGDQASISCRSSQNIVHNNGNTYLGWYLQKPGQSPKLLIFKVSNRFSGVPDRFSGSGSGTDFTLKISRVEAEDLGVYYCFQGSHIPRTFGGGTRLEIKR
notes: also called monoclonal antibody produced from the SKM9-2 hybridoma
binds: all assays above
